Measured values reported in PubChem BioAssay AID1671190 (National Center for Advancing Translational Sciences (NCATS), 2021).
The campaign covered roughly 580,000 compounds. About 6,100 (1.1%) were called active. The shares of active, inactive and inconclusive entries below differ from those in the screen. Calls follow the shape of the dose curve; as a rule, active = well fitted inhibition curve with a large enough effect; inconclusive = small, poorly fitted or top-dose-only effect, or another doubt; inactive = no such curve, though single readings can be large or run the other way. Potencies of inconclusive entries are doubtful fits and often do not repeat.
Potency is read from the fitted curve at half-maximal effect.

By UniProt entry, the sequences of proteins in these tests, tags left out. Where a name states a change or a piece, a line headed by the entry shows the natural chain unless it says otherwise.
UniProt P18054: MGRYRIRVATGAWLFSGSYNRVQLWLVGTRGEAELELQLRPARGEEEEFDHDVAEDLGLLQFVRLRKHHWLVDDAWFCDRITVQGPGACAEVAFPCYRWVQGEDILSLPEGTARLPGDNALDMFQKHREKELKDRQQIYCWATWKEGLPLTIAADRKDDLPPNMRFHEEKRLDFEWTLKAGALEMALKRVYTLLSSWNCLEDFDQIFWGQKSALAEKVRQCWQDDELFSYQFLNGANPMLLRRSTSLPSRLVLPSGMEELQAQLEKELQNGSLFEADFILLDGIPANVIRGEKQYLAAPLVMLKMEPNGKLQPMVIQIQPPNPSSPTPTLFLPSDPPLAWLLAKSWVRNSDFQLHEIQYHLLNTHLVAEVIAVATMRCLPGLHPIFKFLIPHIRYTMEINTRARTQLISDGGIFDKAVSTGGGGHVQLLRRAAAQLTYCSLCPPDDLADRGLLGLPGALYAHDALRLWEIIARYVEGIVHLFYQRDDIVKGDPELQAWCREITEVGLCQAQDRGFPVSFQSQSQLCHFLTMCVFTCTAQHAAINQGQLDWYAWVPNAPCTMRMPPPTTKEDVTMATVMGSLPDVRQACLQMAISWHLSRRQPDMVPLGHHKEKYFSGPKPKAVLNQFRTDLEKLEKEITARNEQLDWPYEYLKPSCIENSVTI

Each compound was assayed against Polyunsaturated fatty acid lipoxygenase ALOX12 (Homo sapiens) (UniProt P18054) (assay: Primary qHTS assay for inhibitors of human arachidonate 12S-lipoxygenase (ALOX12): Round 2). Details: purified 12hLO, xylenol orange hydroperoxide absorbance; series mostly up to 108 µM.
In short: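 Hydroperoxide product was detected by ferrous iron/xylenol orange as the 573 to 405 nm absorbance ratio. Arachidonic acid at 40 uM (final) was turned over for 30 min at room temperature by 150 nM human 12hLO, pH 7.0 Hepes buffer, after 15 min compound preincubation.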
In the case of CN1CCN(c2c([N+](=O)[O-])cnc3ccc(Br)cc23)CC1, the Potency is reported as “inactive”.
In the case of O=c1c2c3c(sc2nc(NCCO)n1CCc1ccccc1)CCCCC3, the Potency is reported as inconclusive: 44.7 µM [inhibitor, partial curve, poor fit].
Cc1noc(-c2cccc(F)c2)c1C(=O)NCCSCc1ccccc1 was tested, and the Potency was inconclusive: 44.7 µM [inhibitor, partial curve, poor fit].
With Cc1noc(C)c1-c1cncnc1NCc1ccccc1 the Potency was inconclusive: 50.1 µM [inhibitor, partial curve, poor fit].
In the case of COc1ccccc1NS(=O)(=O)c1ccc(C)c(NC(=O)NCCCl)c1, the Potency is reported as “inactive”.
For CC(NC(=O)c1cc(S(=O)(=O)N(C)C)ccc1Br)c1cc2ccccc2o1 (configuration not stated), the Potency was inconclusive: 44.7 µM [inhibitor, partial curve, poor fit].
With CCc1c(C(=O)NCCc2ccc(OC)c(OC)c2)[nH]c(C)c1C(C)=O the Potency was “inactive”.
With Cc1ccc(NC(=O)NC(=O)C(C)Cl)c(C)c1 (configuration not stated) the Potency was inconclusive: 44.7 µM [inhibitor, partial curve, poor fit].
For O=C(NCC1CCCO1)C(c1cccs1)N(Cc1cccs1)C(=O)c1ccc(-c2ccccc2)[nH]1 (configuration not stated), the Potency was “inactive”.
With COc1ccc(C)cc1NC(=O)c1cc2ccccc2cc1OCC(=O)Nc1ccc2c(c1)OCCO2 the Potency was inconclusive: 44.7 µM [inhibitor, partial curve, poor fit].
For CCCCCCCOC(=O)Nc1ccc(C)cc1, the Potency was “inactive”.
For Fc1ccc(C2c3cccn3CCN2C(=S)Nc2cccc(F)c2)cc1 (configuration not stated), the Potency was “inactive”.
With O=C(CNCC1CCCCC1)Nc1cccc(S(=O)(=O)N2CCOCC2)c1 the Potency was inconclusive: 0.282 µM [inhibitor, full curve, poor fit].
COC(=O)c1sc(N)c(C(=O)OC)c1CSc1nnc(-c2ccccc2Cl)n1C was tested, and the Potency was “inactive”.
O=C(Cc1ccccc1)c1c[nH]c(C(=O)NCCCN2CCOCC2)c1 was tested, and the Potency was inconclusive: 112 µM [inhibitor, single point].
COc1ccc(-c2c(C)c3ccc(OC(C)=O)cc3oc2=O)cc1 was tested, and the Potency was “inactive”.
CCOC(=O)C1=C(C)Nc2ccccc2N=C1NC(=O)c1oc2ccccc2c1COC was tested, and the Potency was inconclusive: 0.199 µM [inhibitor, full curve, poor fit].
For O=S(=O)(Nc1cccc(CCc2ccccn2)c1)c1ccc(Cl)cc1, the Potency was inconclusive: 141 µM [inhibitor, single point].
CCOc1ccc(C(O)c2nccn2C)cc1 (configuration not stated) was tested, and the Potency was inconclusive: 25.1 µM [inhibitor, partial curve, poor fit].
For CCc1cccc(C)c1NC(=O)COCc1cc(-c2ccc3c(c2)OCO3)on1, the Potency was inconclusive: 112 µM [inhibitor, partial curve, poor fit].
O=C1Nc2cc(C(=O)NCCCN3CCCC3)ccc2S/C1=C/c1cccc(Cl)c1 was tested, and the Potency was inconclusive: 44.7 µM [inhibitor, partial curve, poor fit].
In the case of COCCCNC(=O)c1ccc(N2CCCC2)c(NS(=O)(=O)c2ccc(C)cc2)c1, the Potency is reported as inconclusive: 17.8 µM [inhibitor, full curve].
With c1cncc(-c2cc(NCc3cccs3)ncn2)c1 the Potency was active: 39.8 µM.
For O=C(Nc1nc2ccccc2s1)C1CCCc2ccccc21 (configuration not stated), the Potency was inconclusive: 56.2 µM [inhibitor, single point].
With O=C(c1ccco1)N(Cc1cccnc1)c1nc2c(F)cccc2s1 the Potency was inconclusive: 35.5 µM [inhibitor, partial curve, poor fit].
In the case of O=C(Nc1ccccc1)C1CCN(C(=O)c2ccc3ccccc3n2)CC1, the Potency is reported as inconclusive: 12.6 µM [inhibitor, full curve, poor fit].
In the case of CC(=O)c1c(O)c(C)c(O)c2c1OC1=CC(=O)/C(=C(/C)N)C(=O)C12C (configuration not stated), the Potency is reported as inconclusive: 44.7 µM [inhibitor, partial curve, poor fit].
For CCC(C(=O)OCC(=O)c1ccc(OC)cc1OC)c1ccccc1 (configuration not stated), the Potency was inconclusive: 44.7 µM [inhibitor, partial curve, poor fit].
In the case of c1ccc(Cc2c(C3CCCCC3)nc3c4ccccc4ccn23)cc1, the Potency is reported as “inactive”.
In the case of O=Cc1[nH]c2ccccc2c1N(C(=O)CCl)c1ccc([N+](=O)[O-])cc1, the Potency is reported as active: 39.8 µM.
For Cc1nnc2ccc(SCC(=O)Nc3ccc(Cl)cc3Cl)nn12, the Potency was “inactive”.
In the case of Cc1nn(C)c(C(=O)NC(=S)Nc2ccc([N+](=O)[O-])cc2)c1Cl, the Potency is reported as inconclusive: 4.47 µM [inhibitor, full curve, poor fit].
With COc1ccc(NC(=S)NNC(=O)C(C)n2nc(C)c([N+](=O)[O-])c2C)cc1 (configuration not stated) the Potency was “inactive”.
With Cc1cc(NC(=O)CCN2CCN(Cc3cccc4ccccc34)CC2)ccc1Br the Potency was inconclusive: 10 µM [inhibitor, full curve, poor fit].
In the case of O=C1NC[C@H](Cc2ccc(O)cc2)N(C[C@@H]2CCCN2C[C@H](Cc2ccccc2)N2C[C@H](Cc3ccc(O)cc3)N(CC3CCCCC3)C(=O)C2=O)C1=O, the Potency is reported as inconclusive: 44.7 µM [inhibitor, partial curve, poor fit].
In the case of Cc1ccc(S(=O)(=O)N(CC(=O)NC2CC3CCC2C3)c2ccccc2)cc1 (configuration not stated), the Potency is reported as inconclusive: 35.5 µM [inhibitor, partial curve, poor fit].
For CC(=O)N1CCC(N2C[C@H](O)C[C@H]2c2nc(-c3ccccn3)no2)CC1, the Potency was inconclusive: 5.62 µM [inhibitor, full curve, poor fit].
For CC1CN(c2ccc(NC(=S)NNCCC#N)cc2)CC(C)O1 (configuration not stated), the Potency was “inactive”.
With COc1ccc(O)c(-c2nc(N)nc(N)n2)c1 the Potency was “inactive”.
In the case of O=c1c2c(n(Cc3cccnc3)n1-c1ccccc1)CN(CC1CC1)CC2, the Potency is reported as inconclusive: 25.1 µM [inhibitor, full curve].
With C=CCN(C)C(=O)C[C@@H]1c2nc(NC(=O)c3c(F)cccc3F)sc2C[C@@H]2[C@](C)(CO)[C@H](O)CC[C@]21C the Potency was “inactive”.
For CC1(C(=O)NS(=O)(=O)c2ccc(F)cc2F)CCN1C(=O)Cc1ccc(Cl)cc1Cl (configuration not stated), the Potency was inconclusive: 63.1 µM [inhibitor, partial curve, poor fit].
